At least one compound was matched to its structure with a doubt left.
Tests used:
[1] = tested on: IFNγ; test: IFNγ production; format: cell-based, human; settings: 100 nM, co-culture of SIR-T cells with the target cell line
[2] = tested on: TNFα; test: TNFα production by ELISA; format: cell-based, human; settings: 100 nM, co-culture of SIR-T cells with the target cell line

Cc1nc(Nc2ncc(C(=O)Nc3c(C)cccc3Cl)s2)cc(N2CCN(CCO)CC2)n1 [Dasatinib]
effect on IFNγ production of SIR-T cells (in words) [1]: significantly inhibit IFNγ and TNFα production
effect on TNFα production of SIR-T cells (in words) [2]: significantly inhibit IFNγ and TNFα production
